# Test results from PubChem BioAssay AID2685 (National Center for Advancing Translational Sciences (NCATS), 2010).
# Some of the results follow. Further columns of the screen follow, without active or inactive calls. Compounds called inactive in the main read-out are mostly missing here. The note in brackets gives the kind of curve behind each potency; many fits are weak.
# Test: qHTS Assay for Lipid Storage Modulators in Drosophila S3 Cells;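 for cell number change: cells counted by Cell Tracker Red CMTPX staining in the red channel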
# Details: BODIPY lipid droplet fluorescence, 18-24 h; for cell number change: measured here: cell count max response, cells fed with added oleic acid
# Method in brief: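 Drosophila S3 cells loaded with oleic acid (400 uM, as added) and compounds at several concentrations; lipid droplets imaged by 488-nm laser-scanning cytometry, 500–530 nm intensity and object ratio to cell channel. Percent activity normalized to 20 uM Triacsin C.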
# [1] = measured here: cell number channel AC50, cells fed with added oleic acid
# [2] = measured here: lipid fluorescence (Fed channel) AC50, cells fed with added oleic acid
Structure (SMILES),cell number change [%],AC50 [1],AC50 [2]
CSc1ccccc1NC(=O)CN(C)C(=O)C1CC(=O)N(C(C)c2ccccc2)C1 (centres undefined),-38.2,"29.1 µM [falling, single point]",
O=C(CCc1nc2ccccc2c(=O)[nH]1)Nc1ccc(Cl)c(Cl)c1,31.9,"20.6 µM [rising, partial curve]",
O=C1NC2(CCCCC2)C(=O)N1CCS(=O)(=O)Oc1ccc(Br)cc1,-14,"6.51 µM [falling, single point]","6.51 µM [falling, partial curve, poor fit]"
C=CCSc1nsc(NC(=O)Nc2cccc(C(C)=O)c2)n1,-23.1,,
O=C(Nc1ccc(NC(=O)C2CC2)cc1)c1ccco1,-11.1,,
CC1CC(C)CN(C(=O)c2cc3cc(Br)cc(Br)c3o2)C1 (centres undefined),41.3,"1.64 µM [rising, full curve]",
Cc1ccccc1S(=O)(=O)Nc1nc2ccccc2nc1NCCO,,"7.31 µM [falling, single point]","4.61 µM [falling, single point]"
Cn1nc(C(=O)NC2CCC(O)CC2)c2ccccc2c1=O (centres undefined),17.9,,"4.11 µM [rising, partial curve, poor fit]"
CC(CCc1ccccc1)N(C)CC(O)c1cccc([N+](=O)[O-])c1 (centres undefined),13,,
Cn1c(=O)c2c(SCC(=O)N3CCCC3)nc(-c3ccccc3)nc2n(C)c1=O,-36.2,"23.1 µM [falling, single point]","9.2 µM [falling, partial curve]"
COc1ccc(NC(=O)CCOc2ccccc2)cc1,17.2,"0.116 µM [rising, full curve]",
Cc1cc(C)cc(C(=O)NC(CC(N)=O)c2ccc(NC3CCCC3)c([N+](=O)[O-])c2)c1 (centres undefined),,"3.26 µM [rising, partial curve]","5.17 µM [rising, full curve]"
COc1cc(CCc2ccc3c(c2)OCO3)oc(=O)c1,-72.3,"29.1 µM [falling, single point]",
COc1cc(OC)cc(C(=O)NNC(=O)c2ccc(S(=O)(=O)N3CC(C)OC(C)C3)cc2)c1 (centres undefined),-19.5,"0.0326 µM [falling, full curve, poor fit]","0.00461 µM [falling, full curve, poor fit]"
CCOC(=O)C1CCN(S(=O)(=O)c2c(C)n(C)c(=O)n(C)c2=O)CC1,-86.9,"6.51 µM [falling, full curve]","6.51 µM [falling, full curve]"
CCc1cc(=O)oc2cc(OCC(=O)N3CCC(C(=O)O)CC3)ccc12,13.8,,
O=C(Nc1cnn(Cc2ccc(Cl)c(Cl)c2)c1)C12CC3CC(CC(C3)C1)C2,-36.5,"29.1 µM [falling, single point]","18.4 µM [falling, single point]"
Cc1cccc[n+]1CC(=O)/C=C1\N(C)c2ccccc2C1(C)C,-53.2,"29.1 µM [falling, single point]","23.1 µM [falling, single point]"
CN1CCN(S(=O)(=O)c2ccc(N(C)Cc3cccs3)nc2)CC1,-24.7,,"4.11 µM [rising, full curve]"
O=C(O)c1cccc(S(=O)(=O)Nc2ccc(OCc3ccccc3)cc2)c1,40.1,"3.66 µM [rising, full curve]",

Structure (SMILES),cell number change [%],AC50 [1],AC50 [2]
Cn1c(CNC(=O)c2ccco2)nnc1SCC(=O)N1CCN(c2ccccc2)CC1,16.7,,
Cc1cc(C)cc(NC(=S)N2CCC(NC(=O)c3ccco3)CC2)c1,31.5,"0.0092 µM [rising, full curve, poor fit]",
Cc1ccccc1OCC(=O)Nc1ccncc1,-48.1,"5.17 µM [falling, partial curve]",
COc1ccccc1CCNC(=O)c1ccc(OC)c(OC2CCN(C(C)C)CC2)c1,15.9,,"18.4 µM [rising, partial curve]"
O=C(COc1ccc(S(=O)(=O)N2CCCC2)cc1Cl)NC1CCCC1,4.41,,"18.4 µM [rising, partial curve]"
CC(C)C(C(=O)NCc1ccco1)N(Cc1ccco1)C(=O)CNS(=O)(=O)c1ccccc1 (centres undefined),-6.41,,
Cc1ccc(S(=O)(=O)N(C)/N=C2/C(=O)N(CC(=O)O)c3ccccc32)cc1,19.6,,"0.517 µM [falling, single point]"
Cc1ccc(S(=O)(=O)NCCCNS(=O)(=O)c2ccccc2[N+](=O)[O-])cc1,15.5,,"29.1 µM [rising, single point]"
O=C(CN1CCOC1=O)N1CCCC(Nc2ccc(F)c(F)c2)C1 (centres undefined),19.8,,"6.51 µM [rising, single point]"
CN1C(=S)SC(/[N+]([O-])=C\c2ccc(Cl)cc2)C1(C)C (centres undefined),-12.9,,"11.6 µM [falling, single point]"
CSc1ccc(Cl)c(C(=O)Nc2ccc(N3CCOCC3)cc2)c1,9.97,,"6.51 µM [rising, single point]"
COc1ccccc1C(=O)NC(=S)N1CCCc2ccccc21,,"2.06 µM [falling, partial curve, poor fit]",
COc1ccccc1C(=O)NCCC(=O)N1CCN(c2ccc(C(F)(F)F)cn2)CC1,-37.1,"23.1 µM [falling, partial curve]","0.0164 µM [falling, full curve, poor fit]"
CC1CCCN(C(=O)CN2C(=O)NC3(CCCCC3C)C2=O)C1 (centres undefined),10.8,,"29.1 µM [rising, single point]"
CCOC(=O)C(Cc1ccccc1)NC(=O)CCc1nnc2ccc(N3CCCC3)nn12 (centres undefined),6.49,,"2.31 µM [rising, partial curve]"
COCCN1C(=O)N(c2cccc(OC)c2)C(=O)C1CC(=O)Nc1cccc(F)c1 (centres undefined),19.3,,"3.66 µM [rising, full curve]"
Cc1sc(NC(=O)CSc2nnc(-c3ccc(F)cc3)o2)c(C#N)c1C,-1.87,,"0.58 µM [rising, full curve]"
CCCCC(=O)Nc1nnc(S(=O)(=O)N(CC)c2ccccc2)s1,12.6,"4.61 µM [rising, single point]","20.6 µM [rising, single point]"
O=C(CCN1C(=O)C2C3C=CC(C3)C2C1=O)NCc1cccnc1 (centres undefined),8.46,,
O=C(CSc1nncn1-c1ccccc1)Nc1ccccc1,4.67,,"29.1 µM [rising, single point]"

Structure (SMILES),cell number change [%],AC50 [1],AC50 [2]
Cc1ccc(S(=O)(=O)N(CCC(=O)NCc2ccc(S(N)(=O)=O)cc2)c2ccccc2)cc1,5.38,,
CN(C)c1ccc(/C=N/NS(=O)(=O)c2ccc(Br)cc2)cc1,26.5,"4.11 µM [rising, single point]",
COc1cccc(C(=O)N2CCN(Cc3ccccc3Br)CC2)c1,5.96,,
CN(C)C(=O)c1cc(-c2ccccc2)no1,-16,,"0.00461 µM [falling, full curve, poor fit]"
N#Cc1ccccc1OCCCNC1CCCC1,-12.3,,
CC(=O)Nc1ccc(C(=O)CSc2cc(C)c3cccc(C)c3n2)cc1,1.27,,"0.58 µM [rising, single point]"
COc1cccc(S(=O)(=O)Nc2cccnc2)c1,17.5,,"23.1 µM [falling, partial curve]"
CC(C)Cn1cnc2c1c(=O)n(CC(O)c1ccccc1)c(=O)n2CC(C)C (centres undefined),6.97,,"6.51 µM [rising, single point]"
COc1ccc(Cc2nc3ccc(C(=O)N4C[C@@H](C)O[C@@H](C)C4)cc3o2)cc1OC,-30.4,"29.1 µM [falling, single point]",
O=C(CSc1nnc(Nc2ccccc2)s1)NCc1cccs1,-9.44,,"1.46 µM [falling, full curve, poor fit]"
COc1ccccc1CCNC(=O)CCSc1nc(-c2ccco2)cc(C(F)(F)F)n1,-43.9,"13 µM [falling, partial curve]","20.6 µM [falling, partial curve]"
CC(C)c1ccc2c(c1)C(=O)NC(C)(C)C2,-28.1,,"0.731 µM [falling, full curve]"
Cc1cccc(CSc2nc3c(c(=O)[nH]2)CCCC3)c1,18.6,,"1.64 µM [rising, full curve, poor fit]"
COc1ccccc1C(=O)NCCC(=O)NCC(c1ccco1)N1CCCCC1 (centres undefined),-0.5,,
CCOC(=O)N1CCN(C(=O)C2CCN(S(=O)(=O)c3ccc(C)cc3)CC2)CC1,-3.46,,"0.731 µM [falling, single point]"
CC1=CC(C)(C)Nc2ccc(OC(=O)CCN3C(=O)c4ccccc4C3=O)cc21,-73.3,"20.6 µM [falling, single point]","18.4 µM [falling, single point]"
CCCc1cc(=O)[nH]c(SCc2cc(=O)oc3c(C)c(C)ccc23)n1,2.52,"0.146 µM [falling, full curve, poor fit]",
CCCc1cc(=O)oc2cc(C)cc(OCC(=O)Nc3ccc(S(N)(=O)=O)cc3)c12,85.5,"29.1 µM [rising, single point]","23.1 µM [falling, single point]"
Cc1ccc(CNC(=O)C2CCCN(c3cnccn3)C2)cc1 (centres undefined),37.3,"32.6 µM [rising, single point]",
Cc1c(O)ccc2c(CN3CCN(Cc4ccccc4)CC3)cc(=O)oc12,6.38,,"6.51 µM [falling, single point]"

# In a second layout: results already given
Structure (SMILES)	cell number change [%]	AC50 [1]	AC50 [2]
COc1cc(CCc2ccc3c(c2)OCO3)oc(=O)c1	-72.3	29.1 µM [falling, single point]	
CN1C(=S)SC(/[N+]([O-])=C\c2ccc(Cl)cc2)C1(C)C (centres undefined)	-12.9		11.6 µM [falling, single point]
